# Some of the results follow. Potency and affinity values are given separately.
# System: Acinetobacter baumannii
# Conditions: Concentration 32 ug.mL-1; ASSAY_TEST Inhibition of Bacterial Growth; detection method Absorption (OD600); MEDIA CAMHB; plate type 384well; NBS; CORNING #3640; time 18 hr
row,Compound,Inhibition
1,[N-]=[N+]=NC[C@H]1OC(O)[C@@H](O)[C@@H]1O (stereo partly specified),3.58%
